Measured values published in PMC6094050, “O-GlcNAcylation Signal Mediates Proteasome Inhibitor Resistance in Cancer Cells by Stabilizing NRF1” (Molecular and Cellular Biology, 2018).
No constants are given. Whether binding was seen depends on the method and setting. For some of these results: Binding seen in cells or lysates may run through a third protein. Tags and fused reporters may be left off the sequences shown.

T1: GST-OGT (GST fusion of full-length human O-linked N-acetylglucosamine transferase) (human) (UniProt O15294)
T1 sequence: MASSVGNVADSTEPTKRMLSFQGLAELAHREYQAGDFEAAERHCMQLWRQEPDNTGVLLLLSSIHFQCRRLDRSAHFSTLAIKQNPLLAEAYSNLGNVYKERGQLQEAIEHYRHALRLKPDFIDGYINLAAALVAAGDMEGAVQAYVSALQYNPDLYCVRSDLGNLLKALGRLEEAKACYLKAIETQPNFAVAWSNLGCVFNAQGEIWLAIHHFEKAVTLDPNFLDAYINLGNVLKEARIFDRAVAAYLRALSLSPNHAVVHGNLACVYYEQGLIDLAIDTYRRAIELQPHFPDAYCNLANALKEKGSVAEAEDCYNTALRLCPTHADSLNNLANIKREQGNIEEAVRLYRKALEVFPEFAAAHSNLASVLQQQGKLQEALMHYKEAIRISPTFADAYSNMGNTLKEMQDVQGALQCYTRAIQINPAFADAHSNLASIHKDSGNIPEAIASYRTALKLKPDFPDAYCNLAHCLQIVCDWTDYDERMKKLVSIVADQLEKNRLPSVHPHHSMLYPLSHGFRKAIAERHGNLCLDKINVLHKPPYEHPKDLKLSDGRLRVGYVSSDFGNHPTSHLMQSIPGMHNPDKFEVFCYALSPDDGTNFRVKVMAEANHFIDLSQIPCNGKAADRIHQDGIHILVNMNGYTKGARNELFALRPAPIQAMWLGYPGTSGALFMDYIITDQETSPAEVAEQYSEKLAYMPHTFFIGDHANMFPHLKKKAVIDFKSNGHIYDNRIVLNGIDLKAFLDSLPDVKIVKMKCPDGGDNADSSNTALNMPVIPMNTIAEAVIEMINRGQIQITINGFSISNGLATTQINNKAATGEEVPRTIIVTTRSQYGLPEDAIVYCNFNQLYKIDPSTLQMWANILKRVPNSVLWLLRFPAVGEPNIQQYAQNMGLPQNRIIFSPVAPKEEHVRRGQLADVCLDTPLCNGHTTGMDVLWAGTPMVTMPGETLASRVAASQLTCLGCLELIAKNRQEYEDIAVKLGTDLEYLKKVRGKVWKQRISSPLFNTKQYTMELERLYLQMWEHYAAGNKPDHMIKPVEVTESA


What was measured:
[1] = biological target: 3×FLAG-mNRF1 M1 (Δ464–580) (mouse) (UniProt Q61985); assay: co-IP; soluble nuclear extracts of 293F cells that stably express FLAG-tagged NRF1 or its deletion mutants, precipitated with anti-FLAG antibody; immunoblot for OGT, HCF-1 and FLAG
[2] = biological target: 3×FLAG-mNRF1 M2 (Δ243-580) (mouse) (UniProt Q61985); assay: as above
[3] = biological target: T1, GST-OGT (GST fusion of full-length human O-linked N-acetylglucosamine transferase) (human); assay: pull-down; glutathione-Sepharose-immobilized GST-OGT and GST–HCF-1-C incubated with recombinant His6-tagged NRF1 fragments Fr. 1 and Fr. 2; washed extensively with PBS-T; immunoblot with anti-His6 and anti-GST; both purified

binding [1]	binding [2]	binding [3]	Binder
no binding	no binding	–	O-linked N-acetylglucosamine transferase (OGT), endogenous (enzyme, UniProt O15294 1-1046) MASSVGNVADSTEPTKRMLSFQGLAELAHREYQAGDFEAAERHCMQLWRQEPDNTGVLLLLSSIHFQCRRLDRSAHFSTLAIKQNPLLAEAYSNLGNVYKERGQLQEAIEHYRHALRLKPDFIDGYINLAAALVAAGDMEGAVQAYVSALQYNPDLYCVRSDLGNLLKALGRLEEAKACYLKAIETQPNFAVAWSNLGCVFNAQGEIWLAIHHFEKAVTLDPNFLDAYINLGNVLKEARIFDRAVAAYLRALSLSPNHAVVHGNLACVYYEQGLIDLAIDTYRRAIELQPHFPDAYCNLANALKEKGSVAEAEDCYNTALRLCPTHADSLNNLANIKREQGNIEEAVRLYRKALEVFPEFAAAHSNLASVLQQQGKLQEALMHYKEAIRISPTFADAYSNMGNTLKEMQDVQGALQCYTRAIQINPAFADAHSNLASIHKDSGNIPEAIASYRTALKLKPDFPDAYCNLAHCLQIVCDWTDYDERMKKLVSIVADQLEKNRLPSVHPHHSMLYPLSHGFRKAIAERHGNLCLDKINVLHKPPYEHPKDLKLSDGRLRVGYVSSDFGNHPTSHLMQSIPGMHNPDKFEVFCYALSPDDGTNFRVKVMAEANHFIDLSQIPCNGKAADRIHQDGIHILVNMNGYTKGARNELFALRPAPIQAMWLGYPGTSGALFMDYIITDQETSPAEVAEQYSEKLAYMPHTFFIGDHANMFPHLKKKAVIDFKSNGHIYDNRIVLNGIDLKAFLDSLPDVKIVKMKCPDGGDNADSSNTALNMPVIPMNTIAEAVIEMINRGQIQITINGFSISNGLATTQINNKAATGEEVPRTIIVTTRSQYGLPEDAIVYCNFNQLYKIDPSTLQMWANILKRVPNSVLWLLRFPAVGEPNIQQYAQNMGLPQNRIIFSPVAPKEEHVRRGQLADVCLDTPLCNGHTTGMDVLWAGTPMVTMPGETLASRVAASQLTCLGCLELIAKNRQEYEDIAVKLGTDLEYLKKVRGKVWKQRISSPLFNTKQYTMELERLYLQMWEHYAAGNKPDHMIKPVEVTESA
–	–	no binding	mNRF1-Neh6L-His6 (Fr. 2; 431–580) (domain or fragment, mouse, UniProt Q61985 431-580, looked up, NRF1, mouse, Neh6L domain, residues 431-580; The name is printed both as NRF1-Neh6L-His6 and as His6-NRF1-Neh6L; also called His6-NRF1-Neh6L; fragment 2; source: E. coli BL21(DE3), purified (Ni-NTA agarose)) GFNPVQASQLEEEFDSDSGLSLDSSHSPSSLSSSEGSSSSSSSSSSSSASSSASSSFSEEGAVGYSSDSETLDLEEAEGAVGYQPEYSKFCRMSYQDPSQLSCLPYLEHVGHNHTYNMAPSALDSADLPPPSTLKKGSKEKQADFLDKQM
–	–	no binding	mNRF1-Neh5L/AD2-His6 (Fr. 1; 243–430) (domain or fragment, UniProt Q61985 243-430) FPADVSSIPEAVPSESESPALQNSLLSPLLTGTESPFDLEQQWQDLMSIMEMQAMEVNTSASEILYNAPPGDPLSTNYSLAPNTPINQNVSLHQASLGGCSQDFSLFSPEVESLPVASSSTLLPLVPSNSTSLNSTFGSTNLAGLFFPSQLNGTANDTSGPELPDPLGGLLDEAMLDEISLMDLAIEE
